# From the supplement of paper PMC8728848
# The list shows a part of the results.
# How the values were obtained:
# Assay in all cases: glycan array binding signal (z-score within array); higher = stronger binding
# Conditions in all cases: glycan notation: IUPAC condensed, linker removed
# [1] = molecular target: Neu5Ac(a2-3)Gal(b1-3)GlcNAc(b1-3)Gal(b1-3)GlcNAc
# In short: (§1)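 The Consortium for Functional Glycomics database supplied 3228 glycan arrays, of which those lacking an available protein sequence were dropped. The binding signal, a within-array Z-score, was averaged across arrays of the same protein sequence and across linkers. Negative scores can be read as non-binding.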
# [2] = molecular target: Neu5Ac(a2-3)Gal(b1-3)GlcNAc(b1-3)Gal(b1-4)GlcNAc
# In short: as §1
# [3] = molecular target: Neu5Ac(a2-3)Gal(b1-3)GlcNAc(b1-3)GalNAc
# In short: as §1
# [4] = molecular target: Neu5Ac(a2-3)Gal(b1-3)GlcNAc6S
# In short: as §1
# [5] = molecular target: Neu5Ac(a2-3)Gal(b1-3)[Fuc(a1-4)]GlcNAc
# In short: as §1
# [6] = molecular target: Neu5Ac(a2-3)Gal(b1-3)[Fuc(a1-4)]GlcNAc(b1-3)Gal(b1-3)[Fuc(a1-4)]GlcNAc
# In short: as §1
# [7] = molecular target: Neu5Ac(a2-3)Gal(b1-3)[Fuc(a1-4)]GlcNAc(b1-3)Gal(b1-4)[Fuc(a1-3)]GlcNAc
# In short: as §1
# [8] = molecular target: Neu5Ac(a2-3)Gal(b1-3)[Neu5Ac(a2-3)Gal(b1-4)]GlcNAc
# In short: as §1
# [9] = molecular target: Neu5Ac(a2-3)Gal(b1-3)[Neu5Ac(a2-6)]GalNAc
# In short: as §1
# Neu5Ac(a2-3)Gal(b1-4)Glc = molecular target: Neu5Ac(a2-3)Gal(b1-4)Glc
# In short: as §1
# [10] = molecular target: Neu5Ac(a2-3)Gal(b1-4)GlcNAc
# In short: as §1
# [11] = molecular target: Neu5Ac(a2-3)Gal(b1-4)GlcNAc(b1-2)Man(a1-3)[GlcNAc(b1-2)Man(b1-4)GlcNAc(b1-2)Man(a1-6)]Man(b1-4)GlcNAc(b1-4)GlcNAc
# In short: as §1
# [12] = molecular target: Neu5Ac(a2-3)Gal(b1-4)GlcNAc(b1-2)Man(a1-3)[Neu5Ac(a2-6)Gal(b1-4)GlcNAc(b1-2)Man(a1-6)]Man(b1-4)GlcNAc(b1-4)GlcNAc
# In short: as §1
# [13] = molecular target: Neu5Ac(a2-3)Gal(b1-4)GlcNAc(b1-3)Gal(b1-3)GlcNAc
# In short: as §1
# [14] = molecular target: Neu5Ac(a2-3)Gal(b1-4)GlcNAc(b1-3)Gal(b1-4)GlcNAc
# In short: as §1
# [15] = molecular target: Neu5Ac(a2-3)Gal(b1-4)GlcNAc(b1-3)Gal(b1-4)GlcNAc(b1-3)Gal(b1-4)GlcNAc
# In short: as §1
# [16] = molecular target: Neu5Ac(a2-3)Gal(b1-4)GlcNAc(b1-3)Gal(b1-4)[Fuc(a1-3)]GlcNAc
# In short: as §1
# [17] = molecular target: Neu5Ac(a2-3)Gal(b1-4)GlcNAc(b1-3)GalNAc
# In short: as §1
# [18] = molecular target: Neu5Ac(a2-3)Gal(b1-4)GlcNAc(b1-6)[Gal(b1-3)]GalNAc
# In short: as §1
# [19] = molecular target: Neu5Ac(a2-3)Gal(b1-4)GlcNAc(b1-6)[Neu5Ac(a2-3)Gal(b1-3)]GalNAc
# In short: as §1
# [20] = molecular target: Neu5Ac(a2-3)Gal(b1-4)GlcNAc6S
# In short: as §1
# [21] = molecular target: Neu5Ac(a2-3)Gal(b1-4)[Fuc(a1-3)]GlcNAc
# In short: as §1
# [22] = molecular target: Neu5Ac(a2-3)Gal(b1-4)[Fuc(a1-3)]GlcNAc(b1-3)Gal
# In short: as §1
# [23] = molecular target: Neu5Ac(a2-3)Gal(b1-4)[Fuc(a1-3)]GlcNAc(b1-3)Gal(b1-4)GlcNAc
# In short: as §1
# [24] = molecular target: Neu5Ac(a2-3)Gal(b1-4)[Fuc(a1-3)]GlcNAc(b1-3)Gal(b1-4)[Fuc(a1-3)]GlcNAc(b1-3)Gal(b1-4)[Fuc(a1-3)]GlcNAc
# In short: as §1
# [25] = molecular target: Neu5Ac(a2-3)Gal(b1-4)[Fuc(a1-3)]GlcNAc(b1-3)GalNAc
# In short: as §1
# [26] = molecular target: Neu5Ac(a2-3)Gal(b1-4)[Fuc(a1-3)]GlcNAc(b1-6)[Gal(b1-3)]GalNAc
# In short: as §1
# [27] = molecular target: Neu5Ac(a2-3)Gal(b1-4)[Fuc(a1-3)]GlcNAc(b1-6)[Neu5Ac(a2-3)Gal(b1-3)]GalNAc
# In short: as §1
# [28] = molecular target: Neu5Ac(a2-3)Gal(b1-4)[Fuc(a1-3)]GlcNAc6S
# In short: as §1
# [29] = molecular target: Neu5Ac(a2-3)Gal6S(b1-4)GlcNAc
# In short: as §1
# [30] = molecular target: Neu5Ac(a2-3)Gal6S(b1-4)[Fuc(a1-3)]GlcNAc
# In short: as §1
# Neu5Ac(a2-3)GalNAc = molecular target: Neu5Ac(a2-3)GalNAc
# In short: as §1
# [31] = molecular target: Neu5Ac(a2-3)GalNAc(b1-4)GlcNAc
# In short: as §1
# [32] = molecular target: Neu5Ac(a2-3)[GalNAc(b1-4)]Gal(b1-4)Glc
# In short: as §1
# [33] = molecular target: Neu5Ac(a2-3)[GalNAc(b1-4)]Gal(b1-4)GlcNAc
# In short: as §1
# [34] = molecular target: Neu5Ac(a2-3)[GalNAc(b1-4)]Gal(b1-4)GlcNAc(b1-3)GalNAc
# In short: as §1
# [35] = molecular target: Neu5Ac(a2-3)[Neu5Ac(a2-6)]GalNAc
# In short: as §1
# Neu5Ac(a2-6)Gal = molecular target: Neu5Ac(a2-6)Gal
# In short: as §1
# Neu5Ac(a2-6)Gal(b1-4)Glc = molecular target: Neu5Ac(a2-6)Gal(b1-4)Glc
# In short: as §1
# [36] = molecular target: Neu5Ac(a2-6)Gal(b1-4)GlcNAc
# In short: as §1
binder,measurement,setting,value
"CREG (Mus musculus), O88668 (protein) MAARAPELARSLLAALLAPALVALLVSPASGRGGRDHGDWDVDRRLPPLPPREDGPRVARFVTHVSDWGSLATISTIKEVRGWPFADIISISDGPPGEGTGEPYMYLSPLQQAVSDLQENPEATLTMSLAQTVYCRNHGFDPQSPLCVHIMMSGTVTKVNKTEEDYARDSLFVRHPEMKHWPSSHNWFFAKLKISRIWVLDYFGGPKVVTPEEYFNVTLQ",glycan array binding signal (z-score),[1],-0.054
same,glycan array binding signal (z-score),[2],0.058
same,glycan array binding signal (z-score),[3],-0.483
same,glycan array binding signal (z-score),[4],1.12
same,glycan array binding signal (z-score),[5],-0.737
same,glycan array binding signal (z-score),[6],1.44
same,glycan array binding signal (z-score),[7],-0.584
same,glycan array binding signal (z-score),[8],0.084
same,glycan array binding signal (z-score),[9],1.58
same,glycan array binding signal (z-score),Neu5Ac(a2-3)Gal(b1-4)Glc,-0.215
same,glycan array binding signal (z-score),[10],-0.79
same,glycan array binding signal (z-score),[11],0.268
same,glycan array binding signal (z-score),[12],1.86
same,glycan array binding signal (z-score),[13],-0.268
same,glycan array binding signal (z-score),[14],0.262
same,glycan array binding signal (z-score),[15],-0.483
same,glycan array binding signal (z-score),[16],-0.462
same,glycan array binding signal (z-score),[17],1.43
same,glycan array binding signal (z-score),[18],-0.611
same,glycan array binding signal (z-score),[19],-0.781
same,glycan array binding signal (z-score),[20],1.38
same,glycan array binding signal (z-score),[21],-0.847
same,glycan array binding signal (z-score),[22],-0.238
same,glycan array binding signal (z-score),[23],-0.348
same,glycan array binding signal (z-score),[24],-0.789
same,glycan array binding signal (z-score),[25],3.4
same,glycan array binding signal (z-score),[26],2.02
same,glycan array binding signal (z-score),[27],4.66
same,glycan array binding signal (z-score),[28],-0.731
same,glycan array binding signal (z-score),[29],0.521
same,glycan array binding signal (z-score),[30],0.826
same,glycan array binding signal (z-score),Neu5Ac(a2-3)GalNAc,0.462
same,glycan array binding signal (z-score),[31],-1.96
same,glycan array binding signal (z-score),[32],0.028
same,glycan array binding signal (z-score),[33],-1.05
same,glycan array binding signal (z-score),[34],-0.922
same,glycan array binding signal (z-score),[35],0.028
same,glycan array binding signal (z-score),Neu5Ac(a2-6)Gal,0.29
same,glycan array binding signal (z-score),Neu5Ac(a2-6)Gal(b1-4)Glc,0.189
same,glycan array binding signal (z-score),[36],-0.48

# Two neighbouring records from above:
binder,measurement,setting,value
"CREG (Mus musculus), O88668 (protein) MAARAPELARSLLAALLAPALVALLVSPASGRGGRDHGDWDVDRRLPPLPPREDGPRVARFVTHVSDWGSLATISTIKEVRGWPFADIISISDGPPGEGTGEPYMYLSPLQQAVSDLQENPEATLTMSLAQTVYCRNHGFDPQSPLCVHIMMSGTVTKVNKTEEDYARDSLFVRHPEMKHWPSSHNWFFAKLKISRIWVLDYFGGPKVVTPEEYFNVTLQ",glycan array binding signal (z-score),[20],1.38
same,glycan array binding signal (z-score),[21],-0.847
